From US20240199695A1 (TRANSFERT PLUS S E C, published 2024)
These are yes or no findings as the source states them, for the method shown. Some results given as binding are weak or reduced against the parent protein; the word gives no strength.

By UniProt entry, the sequences of proteins in these tests, tags left out. Residues count along the entry.
UniProt Q99523, residues 78-755: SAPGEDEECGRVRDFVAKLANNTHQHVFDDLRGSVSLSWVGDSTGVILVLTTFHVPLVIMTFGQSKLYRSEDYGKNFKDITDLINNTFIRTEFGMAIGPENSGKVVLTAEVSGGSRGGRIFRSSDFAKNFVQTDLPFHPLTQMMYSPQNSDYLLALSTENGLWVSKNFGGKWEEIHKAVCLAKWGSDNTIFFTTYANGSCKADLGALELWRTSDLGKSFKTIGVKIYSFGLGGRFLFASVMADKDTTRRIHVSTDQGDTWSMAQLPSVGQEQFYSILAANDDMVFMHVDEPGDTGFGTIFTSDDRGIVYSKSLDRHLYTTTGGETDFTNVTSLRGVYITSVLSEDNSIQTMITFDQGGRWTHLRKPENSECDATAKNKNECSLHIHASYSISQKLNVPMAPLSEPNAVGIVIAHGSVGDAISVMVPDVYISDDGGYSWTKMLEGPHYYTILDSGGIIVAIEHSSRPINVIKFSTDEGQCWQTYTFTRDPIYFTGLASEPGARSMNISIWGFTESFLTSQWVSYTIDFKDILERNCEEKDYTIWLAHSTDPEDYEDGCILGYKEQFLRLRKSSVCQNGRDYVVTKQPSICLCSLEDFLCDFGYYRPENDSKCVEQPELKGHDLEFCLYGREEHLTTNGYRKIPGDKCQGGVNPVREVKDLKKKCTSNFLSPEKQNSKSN

Tests used:
[1] = molecular target: soluble form of sortilin (UniProt Q99523); assay: SPR
[2] = molecular target: soluble form of sortilin (UniProt Q99523); assay: SPR; biotinylated KBP-103 on a streptavidin chip, soluble sortilin injected
[3] = molecular target: soluble form of sortilin (UniProt Q99523); assay: SPR; biotinylated Katana peptide on a streptavidin chip, soluble sortilin injected
[4] = molecular target: soluble form of sortilin (UniProt Q99523); assay: SPR; biotinylated KBP-103 immobilised on a streptavidin sensor chip, soluble sortilin injected over it

Measured: binding

B1: KBP-103: …(Biotin) (peptide)
peptide: IKLSGGVQAKAGVINMFKSESYK
modifications: biotin molecule connected at the C-terminal end, K(Biotin)
binds: all assays above
